According to PubChem BioAssay AID2517 (National Center for Advancing Translational Sciences (NCATS), 2010):
About 1,200 (0.34%) of roughly 350,000 compounds were called active. The shares of active, inactive and inconclusive entries below differ from those in the screen. Calls come from the whole dose curve; as a rule, active = well fitted inhibition curve with a large enough effect; inconclusive = small, poorly fitted or top-dose-only effect; inactive = no such curve, though single readings can be large or run the other way. A potency beside an inconclusive call is a rough fit, not a confirmed value.

Chains of the proteins cited; added tags and fusions are not shown.
UniProt P27695, whole entry, looked up: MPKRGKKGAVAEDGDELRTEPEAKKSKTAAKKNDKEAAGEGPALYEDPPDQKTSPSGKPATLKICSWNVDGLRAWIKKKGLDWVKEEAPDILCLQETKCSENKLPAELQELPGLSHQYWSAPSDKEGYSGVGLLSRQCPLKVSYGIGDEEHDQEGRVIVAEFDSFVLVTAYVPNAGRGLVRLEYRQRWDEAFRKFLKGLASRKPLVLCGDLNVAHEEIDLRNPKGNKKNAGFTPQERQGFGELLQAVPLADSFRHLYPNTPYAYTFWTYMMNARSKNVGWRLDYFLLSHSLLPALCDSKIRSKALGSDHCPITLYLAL

The compounds below were run against DNA repair nuclease/redox regulator APEX1 (Homo sapiens) (UniProt P27695) (assay: qHTS Assay for Inhibitors of the Human Apurinic/apyrimidinic Endonuclease 1 (APE1)). Conditions: recombinant APE1, TAMRA/BHQ-2 abasic DNA cleavage fluorescence; series mostly up to 65.8 µM.
Procedure, shortened: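 APE1 at 0.75 nM preincubated 15 min at room temperature with compound. Reaction then started with 50 nM double-stranded THF-abasic substrate labelled with TAMRA/BHQ-2, and 525/598 nm fluorescence read kinetically. Activity taken as third-minus-first read difference, normalized to DMSO and NSC13755 controls.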
Note: nearly all actives have a fitted effect of over 55% in size.
Potency is the fitted concentration of half-maximal effect.

Question: Which Potency does the source give for O=C(O)c1ccccc1-c1nc2ccccc2n1-c1ccccc1 here?
Answer: inactive

Question: CN(C)C1CCN(Cc2cc(COCc3ccccc3)c3cccnc3c2O)C1 (stereo not given) was tested. Which Potency did it give?
Answer: inactive

Question: For CC1CCN(S(=O)(=O)c2cc(Cl)ccc2Br)CC1, which Potency is on record?
Answer: inconclusive: 7.94 µM [inhibitor, single point]

Question: For O=C1/C(=C/c2ccco2)SC(=S)N1c1cccnc1, which Potency is on record?
Answer: active: 3.98 µM

Question: For COc1cccc(C(=O)Nc2ccc3c(c2)C(=O)c2ccccc2C3=O)c1, which Potency is on record?
Answer: inactive

Question: How did the Potency turn out when CCN(C(=O)COC(=O)COc1ccc2c(C)cc(=O)oc2c1)C1CCS(=O)(=O)C1 (stereo not given) was run?
Answer: inconclusive: 10 µM [inhibitor, single point]

Question: With O=C(O)c1ccccc1-n1cccc1C(=O)O as the compound, how does the Potency read?
Answer: inconclusive: 20 µM [inhibitor, partial curve]

Question: Cc1[nH]c2ccccc2c1/C=C(\C#N)C(=O)NCc1ccccc1 was tested. Which Potency did it give?
Answer: inconclusive: 4.47 µM [inhibitor, single point]

Question: Cc1nn(C(=O)CCCC(=O)NCc2ccccc2)c2ccccc12 was tested. Which Potency did it give?
Answer: inactive

Question: N=c1c2c3c(sc2ncn1N)CCCC3 was tested. Which Potency did it give?
Answer: inconclusive: 44.7 µM [inhibitor, single point]

Question: With CCCCc1c(C(=O)O)cc(OC)cc1C(=O)O as the compound, how does the Potency read?
Answer: inactive

Question: How did the Potency turn out when CC(C)C[C@@H](CC(=O)N[C@@H](CCCN)CC(=O)N[C@@H]1CCCC[C@H]1C(=O)N[C@H](CC(=O)N[C@@H](CCC(=O)O)CC(=O)O)Cc1ccccc1)NC(=O)[C@@H]1CCCC[C@H]1N was run?
Answer: inconclusive: 39.8 µM [inhibitor, single point]

Question: Cc1cccc(-n2ncc3c(N(C)Cc4ccccc4)ncnc32)c1 was tested. Which Potency did it give?
Answer: inconclusive: 7.94 µM [inhibitor, single point]

Question: How did the Potency turn out when NC(C(=O)O)c1cc(O)cc(O)c1 (stereo not given) was run?
Answer: inconclusive: 39.8 µM [inhibitor, single point]

Question: With CCN1C(C)=C(C(=O)OC)C(c2ccccc2)N2C(=O)[C@@]3(C(=O)OC)O[C@@]12C1C(=O)N(C)C(=O)C13 (stereo not given in full) as the compound, how does the Potency read?
Answer: inconclusive: 3.16 µM [inhibitor, single point]

Question: For Cc1nnc(SCC2=C(C(=O)O)N3C(=O)C(NC(=O)Cn4nc(C(F)F)cc4C)C3SC2)s1 (stereo not given), which Potency is on record?
Answer: inconclusive: 44.7 µM [inhibitor, single point]

Question: With O=C(COC(=O)c1ccc(Cl)nc1)NCc1ccc2c(c1)OCO2 as the compound, how does the Potency read?
Answer: inconclusive: 39.8 µM [inhibitor, single point]

Question: Which Potency does the source give for CN1CCN(S(=O)(=O)c2cccc(C(=O)NCc3ccccc3Cl)c2)CC1 here?
Answer: inconclusive: 39.8 µM [inhibitor, single point]

Question: How did the Potency turn out when NCC[C@H](O)C(=O)N[C@@H]1C[C@H](N)[C@@H](O[C@H]2O[C@H](CN)[C@@H](O)[C@H](O)[C@H]2O)[C@H](O)[C@H]1O[C@H]1O[C@H](CO)[C@@H](O)[C@H](N)[C@H]1O was run?
Answer: inconclusive: 31.6 µM [inhibitor, single point]

Question: With O=C(Cn1cnc2c(nnn2Cc2ccc(Cl)cc2)c1=O)NC1CCCC1 as the compound, how does the Potency read?
Answer: inconclusive: 44.7 µM [inhibitor, single point]

Question: CC(=C\c1ccco1)/C=C1/SC(=S)N(CC(=O)O)C1=O was tested. Which Potency did it give?
Answer: inactive

Question: Which Potency does the source give for Cc1ccnn1CC(=O)N/N=C/c1ccc([N+](=O)[O-])s1 here?
Answer: inconclusive: 7.94 µM [inhibitor, partial curve, poor fit]

Question: Which Potency does the source give for CCOC(=O)CCN1C(=O)[C@H]2[C@H]3[C@H](O)[C@H](O)C/C(=N/OCc4ccccc4)[C@@H]3CC[C@@H]2C1=O here?
Answer: inconclusive: 4.47 µM [inhibitor, single point]

Question: With CC(C)(CSc1ccccn1)NS(=O)(=O)c1ccccc1 as the compound, how does the Potency read?
Answer: inconclusive: 8.91 µM [inhibitor, single point]

Question: COc1c(Cl)cc(-c2noc(C)c2C(=O)NCc2ccc3c(c2)OCO3)cc1Cl was tested. Which Potency did it give?
Answer: inconclusive: 7.94 µM [inhibitor, single point]

Question: For CCc1ccc(NC(=O)COn2nnc3ccc(S(=O)(=O)N(C)C)cc32)cc1, which Potency is on record?
Answer: inconclusive: 22.4 µM [inhibitor, single point]

Question: For C[n+]1cccc2c(Br)ccc([O-])c21, which Potency is on record?
Answer: inactive

Question: C[C@@H]1OC(OC2CC[C@@]3(C)C(CC[C@@]4(C)C3CC=C3C5CC(C)(C)CC[C@]5(C(=O)OC5OCC(O)[C@@H](O)[C@@H]5OC5O[C@@H](C)[C@H](O[C@H]6OC(CO)C(O)C(O)C6O)C(O)C5O)C(O)C[C@@]34C)C2(C)C)C(O)C(O)[C@H]1OC1OCC(O)C(O)[C@H]1O (stereo not given in full) was tested. Which Potency did it give?
Answer: active: 28.2 µM

Question: With COc1ccccc1C1=NC(c2ccc(C)cc2)N=C1C (stereo not given) as the compound, how does the Potency read?
Answer: inconclusive: 44.7 µM [inhibitor, single point]

Question: Which Potency does the source give for CCCCCCCC/C=C\CCCCCCCC(=O)N[C@H](CO)Cc1ccc(O)cc1 here?
Answer: inconclusive: 44.7 µM [inhibitor, single point]

Question: How did the Potency turn out when COc1cc(C(=O)Nc2ccc(C#N)cc2)c([N+](=O)[O-])cc1OC was run?
Answer: inconclusive: 0.251 µM [inhibitor, full curve, poor fit]

Question: For Cc1ccccc1C(=O)NC(CC(C)C)C(=O)OCc1cc(=O)n2cc(Br)ccc2n1 (stereo not given), which Potency is on record?
Answer: inactive

Question: COc1cc(/C=C2\C(=O)NN(c3ccc(C)cc3)C2=O)cc([N+](=O)[O-])c1O was tested. Which Potency did it give?
Answer: inconclusive: 31.6 µM [inhibitor, single point]

Question: O=C1NN(c2ccccc2)C(=O)/C1=C\c1cccn1-c1ccc(Cl)c([N+](=O)[O-])c1 was tested. Which Potency did it give?
Answer: inactive

Question: How did the Potency turn out when CSc1ccc(C2C3(C#N)C(N)=NC4(OCCO4)C23C#N)cc1 (stereo not given) was run?
Answer: inconclusive: 31.6 µM [inhibitor, single point]

Question: CCOC(=O)N1CCC(NC(=O)c2cc3c(-c4ccc(OC)c(OC)c4)nn(C)c3s2)CC1 was tested. Which Potency did it give?
Answer: inactive

Question: How did the Potency turn out when Cc1cc(N)c2ccccc2[n+]1CCCCCCCCCC[n+]1c(C)cc(N)c2ccccc21 was run?
Answer: inconclusive: 39.8 µM [inhibitor, single point]

Question: How did the Potency turn out when CC(=O)CCc1c(C)c2cccc(C)c2[nH]c1=O was run?
Answer: inconclusive: 39.8 µM [inhibitor, single point]

Question: For O=C(CSc1nnc(COc2ccccc2)n1Cc1ccco1)NCc1ccco1, which Potency is on record?
Answer: inconclusive: 35.5 µM [inhibitor, single point]

Question: Which Potency does the source give for COc1ccc(C)cc1-n1nnnc1SCC(=O)NNC(=O)c1ccc([N+](=O)[O-])cc1 here?
Answer: inconclusive: 8.91 µM [inhibitor, single point]
